What all share (test): activity in cells
In data set [1] the target is PAR-1 (Homo sapiens) (UniProt P25116). Conditions: RB567 with 5' branched 40 kDa PEG; no effect on TRAP-induced aggregation, washed platelets; protein on the cell surface; protein details: native platelets; variant of RB567; dose not given here.
Data set [2] has as its target T1, Thromboxane A2 receptor (Homo sapiens) (UniProt P21731).
T1 sequence (looked up, limits assumed): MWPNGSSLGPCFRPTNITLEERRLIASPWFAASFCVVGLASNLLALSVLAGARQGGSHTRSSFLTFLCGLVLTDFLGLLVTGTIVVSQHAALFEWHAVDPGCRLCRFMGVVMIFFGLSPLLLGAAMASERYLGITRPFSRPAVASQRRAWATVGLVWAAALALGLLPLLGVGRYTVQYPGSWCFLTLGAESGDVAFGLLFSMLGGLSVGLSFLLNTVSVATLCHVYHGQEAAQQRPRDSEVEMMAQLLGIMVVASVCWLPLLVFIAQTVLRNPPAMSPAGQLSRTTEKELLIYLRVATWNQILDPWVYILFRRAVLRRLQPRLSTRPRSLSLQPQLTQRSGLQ
Conditions: RB567 with 5' branched 40 kDa PEG; no effect on arachidonic acid-induced aggregation, PRP; protein on the cell surface; protein details: native platelets; variant of RB567; dose not given here.

The chains behind the UniProt entries cited, without tags or fusion partners. Where a name states a change or a piece, a line headed by the entry shows the natural chain unless it says otherwise. Residues count along the entry.
UniProt P25116, 22-425: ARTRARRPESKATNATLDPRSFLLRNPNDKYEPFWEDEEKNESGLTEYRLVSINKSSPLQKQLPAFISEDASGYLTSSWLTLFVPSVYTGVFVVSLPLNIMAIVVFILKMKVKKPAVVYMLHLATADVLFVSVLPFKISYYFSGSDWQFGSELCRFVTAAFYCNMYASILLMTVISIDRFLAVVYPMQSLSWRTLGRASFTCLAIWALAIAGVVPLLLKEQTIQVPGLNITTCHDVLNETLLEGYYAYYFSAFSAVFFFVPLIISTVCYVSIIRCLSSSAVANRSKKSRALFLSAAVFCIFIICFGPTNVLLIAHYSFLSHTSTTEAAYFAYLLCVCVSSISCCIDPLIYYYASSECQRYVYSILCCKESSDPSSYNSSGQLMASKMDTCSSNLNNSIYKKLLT
UniProt Q9H244: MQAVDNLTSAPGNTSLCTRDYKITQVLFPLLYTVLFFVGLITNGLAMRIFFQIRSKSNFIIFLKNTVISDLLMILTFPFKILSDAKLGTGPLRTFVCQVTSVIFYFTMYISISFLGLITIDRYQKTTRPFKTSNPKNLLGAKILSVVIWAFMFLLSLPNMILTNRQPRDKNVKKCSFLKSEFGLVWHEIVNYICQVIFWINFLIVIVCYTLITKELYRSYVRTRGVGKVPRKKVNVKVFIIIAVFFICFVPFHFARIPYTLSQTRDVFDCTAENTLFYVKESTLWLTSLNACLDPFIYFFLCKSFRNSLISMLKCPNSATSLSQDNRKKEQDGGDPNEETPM
UniProt P47900: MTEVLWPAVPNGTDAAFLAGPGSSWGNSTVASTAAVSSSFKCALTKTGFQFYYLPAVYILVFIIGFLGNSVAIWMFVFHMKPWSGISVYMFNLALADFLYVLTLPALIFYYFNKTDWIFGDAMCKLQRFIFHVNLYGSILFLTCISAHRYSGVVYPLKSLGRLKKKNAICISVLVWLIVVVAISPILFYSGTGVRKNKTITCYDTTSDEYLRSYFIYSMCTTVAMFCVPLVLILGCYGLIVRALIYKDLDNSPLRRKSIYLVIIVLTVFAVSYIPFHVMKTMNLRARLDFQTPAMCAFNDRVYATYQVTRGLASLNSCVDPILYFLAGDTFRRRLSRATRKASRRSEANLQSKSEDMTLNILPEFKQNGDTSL
UniProt P07359, 17-652: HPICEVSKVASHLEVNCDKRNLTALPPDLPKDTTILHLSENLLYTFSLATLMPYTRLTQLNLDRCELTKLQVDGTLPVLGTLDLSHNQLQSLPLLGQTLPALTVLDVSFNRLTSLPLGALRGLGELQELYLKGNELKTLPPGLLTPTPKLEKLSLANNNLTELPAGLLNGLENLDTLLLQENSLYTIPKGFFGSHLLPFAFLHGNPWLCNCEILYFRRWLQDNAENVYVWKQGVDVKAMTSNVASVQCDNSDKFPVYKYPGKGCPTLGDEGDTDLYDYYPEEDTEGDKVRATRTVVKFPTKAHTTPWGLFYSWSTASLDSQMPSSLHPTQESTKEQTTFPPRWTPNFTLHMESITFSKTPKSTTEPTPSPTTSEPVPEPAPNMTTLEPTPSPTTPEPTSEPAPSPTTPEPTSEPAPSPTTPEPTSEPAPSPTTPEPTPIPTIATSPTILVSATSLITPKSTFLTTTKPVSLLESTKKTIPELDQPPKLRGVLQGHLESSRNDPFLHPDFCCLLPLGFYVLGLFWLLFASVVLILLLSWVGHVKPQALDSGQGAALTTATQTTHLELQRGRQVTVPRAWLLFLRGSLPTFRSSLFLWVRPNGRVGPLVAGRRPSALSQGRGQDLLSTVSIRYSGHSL

The target of data set [3] is P2Y12 (Homo sapiens) (UniProt Q9H244). The conditions noted are these: RB567 with 5' branched 40 kDa PEG; no effect on ADP-induced aggregation, washed platelets; protein on the cell surface; protein details: native platelets; variant of RB567; dose not given here.
Data set [4] deals with P2Y1 (Homo sapiens) (UniProt P47900). The conditions noted are these: RB567 with 5' branched 40 kDa PEG; no effect on ADP-induced aggregation, washed platelets; protein on the cell surface; protein details: native platelets; variant of RB567; dose not given here.
For data set [5], the target named is T2, Glycoprotein VI on platelets (Homo sapiens) (UniProt Q9HCN6).
T2 sequence (limits assumed): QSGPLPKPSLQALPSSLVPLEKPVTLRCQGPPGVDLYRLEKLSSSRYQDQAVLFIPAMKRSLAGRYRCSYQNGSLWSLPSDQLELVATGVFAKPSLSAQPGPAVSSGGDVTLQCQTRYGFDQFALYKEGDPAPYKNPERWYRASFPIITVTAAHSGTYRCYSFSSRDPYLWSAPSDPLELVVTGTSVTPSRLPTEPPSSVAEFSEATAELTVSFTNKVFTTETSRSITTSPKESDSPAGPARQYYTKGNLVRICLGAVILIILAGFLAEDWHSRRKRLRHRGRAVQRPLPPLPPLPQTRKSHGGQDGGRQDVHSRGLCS
Conditions: RB567 with 5' branched 40 kDa PEG; CRP-XL-induced washed platelet aggregation; protein on the cell surface; variant of RB567.

Data set [6] deals with GP1b alpha (Homo sapiens) (UniProt P07359). The conditions noted are these: RB567 with 5' branched 40 kDa PEG; no effect on ristocetin-induced aggregation, PRP; protein on the cell surface; protein details: native platelets; variant of RB567; dose not given here.

The exact form of at least one protein or probe is not confirmed. For part of these data: No signal at the amounts used counts as a negative. For part of these data: Where a protein sequence is shown, tags need not be part of it. For part of these data: Results from cells or extracts need not show a direct contact.

For GGAGGACGGCGCGCCUGGCAUAAGCCUCC [RB571], the “functional effect of the aptamer” value in data set [1], in data set [2], in data set [3], in data set [4] and in data set [6] was “not active” throughout. This sequence yielded a half-maximal inhibitory concentration (IC50) in data set [5] of 0.033 µM.

The values are drawn from patent publication US20100311820.
